{"source": "paper PMC10499415", "about": "(Clinical and Translational Science, 2023)", "origin": "cited, not measured here", "key": {"[1]": {"details": "healthy male adults; cited from earlier work"}, "[2]": {"details": "patients with cancer and healthy subjects; cited from earlier work"}}, "data": [{"smiles": "C=CC(=O)N1CC[C@H](n2nc(C#Cc3cc(OC)cc(OC)c3)c3c(N)ncnc32)C1", "note": "[futibatinib, Futibatinib]", "values": [{"measurement": "radioactivity recovered in feces", "setting": "[1]", "result": "More than 90%"}, {"measurement": "time to maximum plasma concentration (T max)", "setting": "[2]", "result": "~ 2 h"}]}]}
